Results taken from PMC11786039.
No constants are given. Whether binding was seen depends on the method and setting. In cells and extracts the contact can be indirect. Some binding calls cover weakened binding; strength is not graded here.

Sequences of proteins named here, by UniProt entry; tags and fusion partners are left off. Residues count along the entry.
UniProt P30101, residues 25-505: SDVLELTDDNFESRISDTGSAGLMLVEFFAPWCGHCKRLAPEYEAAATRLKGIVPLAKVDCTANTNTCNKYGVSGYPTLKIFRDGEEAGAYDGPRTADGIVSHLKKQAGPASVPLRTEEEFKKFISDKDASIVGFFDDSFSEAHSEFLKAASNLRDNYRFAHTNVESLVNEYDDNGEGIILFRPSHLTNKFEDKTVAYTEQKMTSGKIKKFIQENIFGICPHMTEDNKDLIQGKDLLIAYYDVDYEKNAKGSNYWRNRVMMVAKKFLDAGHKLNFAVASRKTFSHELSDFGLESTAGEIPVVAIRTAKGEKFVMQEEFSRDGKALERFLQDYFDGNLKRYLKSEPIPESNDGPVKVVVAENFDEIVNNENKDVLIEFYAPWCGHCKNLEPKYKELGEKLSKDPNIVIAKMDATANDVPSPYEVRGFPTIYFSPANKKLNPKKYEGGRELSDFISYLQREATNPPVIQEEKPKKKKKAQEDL

Molecular target: T1, aurora kinase C (AURKC) (human (endogenous in SW839 and SKRC-39)) (UniProt Q9UQB9)
T1 sequence: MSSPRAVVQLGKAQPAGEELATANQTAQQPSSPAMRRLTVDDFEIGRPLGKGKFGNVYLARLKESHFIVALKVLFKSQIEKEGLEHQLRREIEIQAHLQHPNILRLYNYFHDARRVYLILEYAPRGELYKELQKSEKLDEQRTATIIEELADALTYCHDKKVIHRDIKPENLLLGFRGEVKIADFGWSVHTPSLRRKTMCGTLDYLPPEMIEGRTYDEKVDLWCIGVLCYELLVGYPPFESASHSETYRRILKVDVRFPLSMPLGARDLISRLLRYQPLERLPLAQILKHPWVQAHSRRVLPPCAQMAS
Test: co-IP; AURKC antibody added to 200 uL lysate of SW839 or SKRC-39 cells, overnight at 4°C, magnetic beads, 5 washes with cell lysate; ERp57 detected by western blot

binding: binds
Substance: Endoplasmic reticulum resident protein 57 (ERp57) (from UniProt P30101 25-505)
